Taken from: PubChem BioAssay AID1508597 (Cure First, 2020)

- Purpose: 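Genes whose silencing sensitises or protects ovarian cancer cells against rucaparib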 (primary screen)
- System: human ovarian carcinoma lines grown from tumours: OCI-P5x (papillary serous) and OCI-C5x (clear cell)
- Reagents: siRNA pool against human genes, 1.25 pmol siRNA per well
- Duration: 72 h or 96 h, depending on the cell culture
- Treatment: rucaparib 20 µM (about IC30) or vehicle, present until read-out
- Read-out: 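Luminescent ATP-based viability assay read 72 or 96 h after transfection, depending on culture, given as normalised percent viability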
- Scale: viability, normalised: higher = more viable cells remaining
- Call rule: 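a well counts as a hit if its normalised viability is under 80 percent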
- Meaning of the calls: active = viability under 80%; inactive = viability 80% or more
The deposit covers about 2,100 reagents; shown is an unselected part. 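Calls flag viability under 80% in either arm, not effects specific to rucaparib; the reference for percent is not stated.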 Unmarked entries are inactive. Not given: the 100% reference.

Gene	rucaparib or vehicle	cell line	technical replicate	viability, normalised (%)
TADA1	Rucaparib	OCI-C5x (clear cell)	1	79.3 (active)
TADA1	Rucaparib	OCI-C5x (clear cell)	2	56.9 (active)
TADA1	Rucaparib	OCI-C5x (clear cell)	3	44.6 (active)
TADA1	Rucaparib	OCI-P5x (serous)	1	62.4 (active)
TADA1	Rucaparib	OCI-P5x (serous)	2	64.4 (active)
TADA1	Rucaparib	OCI-P5x (serous)	3	64.8 (active)
TADA1	Vehicle	OCI-C5x (clear cell)	1	40.7 (active)
TADA1	Vehicle	OCI-C5x (clear cell)	2	51.6 (active)
TADA1	Vehicle	OCI-C5x (clear cell)	3	54.4 (active)
TADA1	Vehicle	OCI-P5x (serous)	1	78.3 (active)
TADA1	Vehicle	OCI-P5x (serous)	2	86.9
TADA1	Vehicle	OCI-P5x (serous)	3	76.8 (active)
DOT1L	Rucaparib	OCI-C5x (clear cell)	1	32.7 (active)
DOT1L	Rucaparib	OCI-C5x (clear cell)	2	30.4 (active)
DOT1L	Rucaparib	OCI-C5x (clear cell)	3	44.6 (active)
DOT1L	Rucaparib	OCI-P5x (serous)	1	53.2 (active)
DOT1L	Rucaparib	OCI-P5x (serous)	2	73 (active)
DOT1L	Rucaparib	OCI-P5x (serous)	3	78 (active)
DOT1L	Vehicle	OCI-C5x (clear cell)	1	40.1 (active)
DOT1L	Vehicle	OCI-C5x (clear cell)	2	33.6 (active)
DOT1L	Vehicle	OCI-C5x (clear cell)	3	35.1 (active)
DOT1L	Vehicle	OCI-P5x (serous)	1	65.2 (active)
DOT1L	Vehicle	OCI-P5x (serous)	2	67.3 (active)
DOT1L	Vehicle	OCI-P5x (serous)	3	80.6
PRKACB	Rucaparib	OCI-C5x (clear cell)	1	57.7 (active)
PRKACB	Rucaparib	OCI-C5x (clear cell)	2	74 (active)
PRKACB	Rucaparib	OCI-C5x (clear cell)	3	45 (active)
PRKACB	Rucaparib	OCI-P5x (serous)	1	96.9
PRKACB	Rucaparib	OCI-P5x (serous)	2	94.8
PRKACB	Rucaparib	OCI-P5x (serous)	3	90.6
PRKACB	Vehicle	OCI-C5x (clear cell)	1	69.1 (active)
PRKACB	Vehicle	OCI-C5x (clear cell)	2	74 (active)
PRKACB	Vehicle	OCI-C5x (clear cell)	3	47.4 (active)
PRKACB	Vehicle	OCI-P5x (serous)	1	87
PRKACB	Vehicle	OCI-P5x (serous)	2	82.7
PRKACB	Vehicle	OCI-P5x (serous)	3	61.9 (active)
TLR4	Rucaparib	OCI-C5x (clear cell)	1	36.3 (active)
TLR4	Rucaparib	OCI-C5x (clear cell)	2	49.2 (active)
TLR4	Rucaparib	OCI-C5x (clear cell)	3	30.2 (active)
TLR4	Rucaparib	OCI-P5x (serous)	1	60.4 (active)
TLR4	Rucaparib	OCI-P5x (serous)	2	62.1 (active)
TLR4	Rucaparib	OCI-P5x (serous)	3	48 (active)
TLR4	Vehicle	OCI-C5x (clear cell)	1	33.2 (active)
TLR4	Vehicle	OCI-C5x (clear cell)	2	29.7 (active)
TLR4	Vehicle	OCI-C5x (clear cell)	3	28.9 (active)
TLR4	Vehicle	OCI-P5x (serous)	1	54.1 (active)
TLR4	Vehicle	OCI-P5x (serous)	2	61.6 (active)
TLR4	Vehicle	OCI-P5x (serous)	3	59.6 (active)
